{
  "source": "patent US4983593A",
  "about": "“Pharmaceutical composition of dihydropyridine compound” (priority 1988, dated 1991)",
  "origin": "cited, not measured here",
  "conditions": "background; cited from earlier work",
  "data": [
    {"smiles": "COC(=O)C1=C(C)NC(C)=C(C(=O)OC)C1c1ccccc1[N+](=O)[O-]", "note": "[nifedipine]", "values": [
      {"measurement": "Absorption through gastrointestinal tracts (in words)", "value": "can not be absorbed through gastrointestinal tracts in a sufficient amount"}
    ]}
  ]
}
